Reference: the supplement of paper PMC10849652
Some of the results follow.

Amino acid sequences for entries named in this document (tags omitted). A change or cut given only in a name is not applied to a line headed by its entry.
UniProt Q99729: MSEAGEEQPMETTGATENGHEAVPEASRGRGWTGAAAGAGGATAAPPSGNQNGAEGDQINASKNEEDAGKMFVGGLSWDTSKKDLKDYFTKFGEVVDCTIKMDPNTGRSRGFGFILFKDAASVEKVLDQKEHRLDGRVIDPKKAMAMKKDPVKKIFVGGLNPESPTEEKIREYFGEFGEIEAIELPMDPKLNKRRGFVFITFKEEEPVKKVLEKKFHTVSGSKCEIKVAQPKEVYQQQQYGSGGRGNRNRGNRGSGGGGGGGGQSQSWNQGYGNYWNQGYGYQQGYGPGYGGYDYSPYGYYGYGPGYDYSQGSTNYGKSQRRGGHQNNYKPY
UniProt P22626: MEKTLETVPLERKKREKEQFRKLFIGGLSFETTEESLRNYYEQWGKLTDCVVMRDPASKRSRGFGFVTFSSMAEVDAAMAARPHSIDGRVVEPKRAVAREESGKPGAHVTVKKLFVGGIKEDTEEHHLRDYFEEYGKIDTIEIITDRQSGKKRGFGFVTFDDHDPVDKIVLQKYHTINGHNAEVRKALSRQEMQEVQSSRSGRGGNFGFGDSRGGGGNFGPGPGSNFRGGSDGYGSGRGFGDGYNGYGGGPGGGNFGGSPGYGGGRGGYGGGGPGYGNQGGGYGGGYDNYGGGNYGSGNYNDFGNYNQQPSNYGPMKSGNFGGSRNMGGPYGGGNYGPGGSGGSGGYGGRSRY
UniProt Q53FT3: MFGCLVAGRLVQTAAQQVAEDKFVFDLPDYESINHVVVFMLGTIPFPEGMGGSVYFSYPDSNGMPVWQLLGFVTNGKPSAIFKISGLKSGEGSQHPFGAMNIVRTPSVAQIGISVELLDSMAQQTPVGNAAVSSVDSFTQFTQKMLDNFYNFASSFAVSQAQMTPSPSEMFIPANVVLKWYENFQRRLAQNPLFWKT
UniProt Q9BUJ2: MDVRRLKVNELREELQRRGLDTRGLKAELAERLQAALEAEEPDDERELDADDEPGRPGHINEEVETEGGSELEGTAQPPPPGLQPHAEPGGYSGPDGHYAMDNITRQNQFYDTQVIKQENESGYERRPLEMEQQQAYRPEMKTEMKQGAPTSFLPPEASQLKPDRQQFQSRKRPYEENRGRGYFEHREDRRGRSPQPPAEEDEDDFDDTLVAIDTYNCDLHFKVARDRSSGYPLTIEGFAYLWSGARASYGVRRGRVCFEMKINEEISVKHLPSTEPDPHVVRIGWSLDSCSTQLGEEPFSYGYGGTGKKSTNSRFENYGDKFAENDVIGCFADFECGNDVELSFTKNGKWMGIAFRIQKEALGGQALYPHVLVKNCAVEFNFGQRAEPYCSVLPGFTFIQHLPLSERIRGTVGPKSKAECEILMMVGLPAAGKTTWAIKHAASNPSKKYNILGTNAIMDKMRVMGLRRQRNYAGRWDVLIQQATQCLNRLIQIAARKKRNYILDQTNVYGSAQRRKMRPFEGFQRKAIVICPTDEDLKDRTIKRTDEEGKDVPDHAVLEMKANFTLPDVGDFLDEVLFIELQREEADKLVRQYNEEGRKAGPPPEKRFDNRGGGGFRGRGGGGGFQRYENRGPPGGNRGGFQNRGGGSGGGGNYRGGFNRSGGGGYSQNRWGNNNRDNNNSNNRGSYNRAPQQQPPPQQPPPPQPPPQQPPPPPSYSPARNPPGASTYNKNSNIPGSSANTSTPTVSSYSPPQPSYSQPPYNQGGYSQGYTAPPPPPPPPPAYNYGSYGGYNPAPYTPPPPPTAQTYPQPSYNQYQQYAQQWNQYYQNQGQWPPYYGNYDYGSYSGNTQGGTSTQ
UniProt P04035: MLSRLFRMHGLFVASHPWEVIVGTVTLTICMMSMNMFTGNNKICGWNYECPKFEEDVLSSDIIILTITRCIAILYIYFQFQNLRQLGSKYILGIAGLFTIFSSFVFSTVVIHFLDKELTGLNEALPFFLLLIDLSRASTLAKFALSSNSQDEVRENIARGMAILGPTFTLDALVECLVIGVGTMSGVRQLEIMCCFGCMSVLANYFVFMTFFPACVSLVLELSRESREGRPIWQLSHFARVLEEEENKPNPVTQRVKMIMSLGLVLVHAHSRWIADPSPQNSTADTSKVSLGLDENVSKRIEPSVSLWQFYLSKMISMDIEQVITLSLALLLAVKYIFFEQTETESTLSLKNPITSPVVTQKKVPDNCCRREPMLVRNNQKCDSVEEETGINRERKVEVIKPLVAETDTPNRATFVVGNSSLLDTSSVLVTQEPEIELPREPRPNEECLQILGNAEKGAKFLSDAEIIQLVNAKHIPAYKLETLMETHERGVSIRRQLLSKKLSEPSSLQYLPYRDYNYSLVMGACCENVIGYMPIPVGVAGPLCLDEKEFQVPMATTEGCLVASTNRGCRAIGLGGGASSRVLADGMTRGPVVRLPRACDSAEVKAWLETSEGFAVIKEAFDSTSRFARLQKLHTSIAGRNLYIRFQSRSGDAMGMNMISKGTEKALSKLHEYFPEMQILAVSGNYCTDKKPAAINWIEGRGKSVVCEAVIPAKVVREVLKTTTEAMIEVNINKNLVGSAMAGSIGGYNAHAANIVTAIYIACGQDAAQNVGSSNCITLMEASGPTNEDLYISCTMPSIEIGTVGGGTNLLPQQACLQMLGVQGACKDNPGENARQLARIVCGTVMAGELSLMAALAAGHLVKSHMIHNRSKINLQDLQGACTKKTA
UniProt P52789: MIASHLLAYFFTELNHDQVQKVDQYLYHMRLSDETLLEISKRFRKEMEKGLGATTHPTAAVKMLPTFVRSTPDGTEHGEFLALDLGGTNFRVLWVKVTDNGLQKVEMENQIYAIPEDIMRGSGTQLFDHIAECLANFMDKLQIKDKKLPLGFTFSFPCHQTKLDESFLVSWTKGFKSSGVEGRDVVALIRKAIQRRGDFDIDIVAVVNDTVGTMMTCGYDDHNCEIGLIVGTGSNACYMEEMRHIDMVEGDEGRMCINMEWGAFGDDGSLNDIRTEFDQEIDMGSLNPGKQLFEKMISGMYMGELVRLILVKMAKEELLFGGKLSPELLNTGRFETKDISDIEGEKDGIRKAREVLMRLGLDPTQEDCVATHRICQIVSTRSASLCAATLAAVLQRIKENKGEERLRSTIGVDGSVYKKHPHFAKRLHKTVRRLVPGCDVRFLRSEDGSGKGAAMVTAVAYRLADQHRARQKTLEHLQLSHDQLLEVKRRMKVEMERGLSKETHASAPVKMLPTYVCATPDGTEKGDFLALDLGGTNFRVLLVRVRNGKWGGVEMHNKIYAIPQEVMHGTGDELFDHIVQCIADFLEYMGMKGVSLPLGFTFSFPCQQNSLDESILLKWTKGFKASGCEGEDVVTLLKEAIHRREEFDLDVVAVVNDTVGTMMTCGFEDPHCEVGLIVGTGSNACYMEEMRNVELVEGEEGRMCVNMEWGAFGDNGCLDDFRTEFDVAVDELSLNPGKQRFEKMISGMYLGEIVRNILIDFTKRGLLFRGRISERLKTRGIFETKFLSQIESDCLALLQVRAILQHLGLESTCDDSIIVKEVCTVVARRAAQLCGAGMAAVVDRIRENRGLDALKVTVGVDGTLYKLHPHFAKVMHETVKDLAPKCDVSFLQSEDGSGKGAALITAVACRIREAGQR
UniProt Q03014: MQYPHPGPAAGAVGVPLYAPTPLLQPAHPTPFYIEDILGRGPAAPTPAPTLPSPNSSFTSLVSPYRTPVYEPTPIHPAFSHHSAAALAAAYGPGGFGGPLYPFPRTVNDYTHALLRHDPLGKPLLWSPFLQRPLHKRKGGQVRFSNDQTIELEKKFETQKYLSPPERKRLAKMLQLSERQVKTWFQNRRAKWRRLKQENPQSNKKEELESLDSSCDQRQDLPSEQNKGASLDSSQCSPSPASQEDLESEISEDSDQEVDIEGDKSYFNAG
UniProt Q53GQ0: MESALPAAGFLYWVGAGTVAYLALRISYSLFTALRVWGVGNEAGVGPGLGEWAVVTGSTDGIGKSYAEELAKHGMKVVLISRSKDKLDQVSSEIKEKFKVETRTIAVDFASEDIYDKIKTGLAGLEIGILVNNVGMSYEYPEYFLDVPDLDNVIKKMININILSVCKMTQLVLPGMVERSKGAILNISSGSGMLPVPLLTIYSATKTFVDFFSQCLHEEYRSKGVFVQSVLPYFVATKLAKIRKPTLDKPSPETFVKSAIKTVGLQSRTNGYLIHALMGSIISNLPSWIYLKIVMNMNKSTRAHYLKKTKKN
UniProt P30519: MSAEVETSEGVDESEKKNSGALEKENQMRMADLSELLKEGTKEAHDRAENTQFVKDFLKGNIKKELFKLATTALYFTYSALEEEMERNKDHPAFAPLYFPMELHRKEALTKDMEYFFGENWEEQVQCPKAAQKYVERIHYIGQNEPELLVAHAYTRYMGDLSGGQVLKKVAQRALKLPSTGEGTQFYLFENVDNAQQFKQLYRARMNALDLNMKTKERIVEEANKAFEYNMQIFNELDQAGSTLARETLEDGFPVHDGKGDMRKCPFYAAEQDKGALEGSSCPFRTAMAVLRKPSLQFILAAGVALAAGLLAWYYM
UniProt Q14527: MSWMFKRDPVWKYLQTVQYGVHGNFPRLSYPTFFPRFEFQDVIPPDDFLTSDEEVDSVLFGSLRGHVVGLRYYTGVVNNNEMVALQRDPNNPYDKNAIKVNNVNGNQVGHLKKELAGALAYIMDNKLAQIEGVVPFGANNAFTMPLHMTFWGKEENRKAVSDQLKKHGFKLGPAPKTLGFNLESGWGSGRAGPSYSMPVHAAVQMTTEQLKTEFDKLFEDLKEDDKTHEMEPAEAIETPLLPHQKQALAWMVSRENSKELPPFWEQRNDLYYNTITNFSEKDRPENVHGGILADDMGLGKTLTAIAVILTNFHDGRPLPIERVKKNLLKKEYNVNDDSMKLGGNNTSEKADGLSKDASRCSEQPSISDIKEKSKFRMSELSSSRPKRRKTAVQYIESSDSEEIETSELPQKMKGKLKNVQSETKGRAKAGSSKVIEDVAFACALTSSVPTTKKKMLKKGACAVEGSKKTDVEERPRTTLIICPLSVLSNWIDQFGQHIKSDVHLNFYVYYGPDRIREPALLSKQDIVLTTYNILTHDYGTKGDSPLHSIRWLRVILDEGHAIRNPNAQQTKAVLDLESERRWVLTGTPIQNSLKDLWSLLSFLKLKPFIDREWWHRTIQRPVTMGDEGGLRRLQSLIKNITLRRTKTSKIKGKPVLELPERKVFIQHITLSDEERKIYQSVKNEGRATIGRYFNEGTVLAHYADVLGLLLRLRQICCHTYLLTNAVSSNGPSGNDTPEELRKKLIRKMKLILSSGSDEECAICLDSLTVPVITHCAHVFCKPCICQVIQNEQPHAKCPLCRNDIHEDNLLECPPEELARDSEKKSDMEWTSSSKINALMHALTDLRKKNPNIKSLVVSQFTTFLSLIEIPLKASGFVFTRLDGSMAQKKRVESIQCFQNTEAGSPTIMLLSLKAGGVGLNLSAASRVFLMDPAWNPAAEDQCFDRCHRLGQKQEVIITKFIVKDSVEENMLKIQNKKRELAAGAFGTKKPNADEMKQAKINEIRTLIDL
UniProt Q5T440: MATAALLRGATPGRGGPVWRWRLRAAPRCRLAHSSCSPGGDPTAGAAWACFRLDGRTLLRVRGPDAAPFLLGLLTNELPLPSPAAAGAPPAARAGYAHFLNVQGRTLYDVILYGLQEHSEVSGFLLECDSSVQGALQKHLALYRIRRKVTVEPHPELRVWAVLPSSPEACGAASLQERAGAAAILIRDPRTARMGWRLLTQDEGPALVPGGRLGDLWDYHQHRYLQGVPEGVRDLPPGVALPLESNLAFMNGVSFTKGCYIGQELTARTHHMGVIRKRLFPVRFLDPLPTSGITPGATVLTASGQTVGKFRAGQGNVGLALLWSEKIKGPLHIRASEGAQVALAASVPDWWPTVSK
UniProt Q8WVV9: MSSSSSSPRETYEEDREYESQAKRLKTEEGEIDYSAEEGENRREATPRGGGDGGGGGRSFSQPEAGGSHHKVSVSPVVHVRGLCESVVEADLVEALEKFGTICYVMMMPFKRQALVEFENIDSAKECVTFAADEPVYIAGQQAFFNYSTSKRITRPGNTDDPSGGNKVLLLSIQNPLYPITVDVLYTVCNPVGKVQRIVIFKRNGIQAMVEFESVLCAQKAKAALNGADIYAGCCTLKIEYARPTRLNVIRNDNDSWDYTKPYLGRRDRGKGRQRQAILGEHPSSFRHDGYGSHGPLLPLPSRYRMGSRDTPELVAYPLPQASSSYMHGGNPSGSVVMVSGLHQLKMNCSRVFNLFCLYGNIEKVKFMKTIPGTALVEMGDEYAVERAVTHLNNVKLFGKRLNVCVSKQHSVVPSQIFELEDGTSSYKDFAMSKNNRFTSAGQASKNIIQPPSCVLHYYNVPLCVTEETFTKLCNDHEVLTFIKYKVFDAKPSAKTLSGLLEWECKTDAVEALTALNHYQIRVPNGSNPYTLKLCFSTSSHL

Assays:
Test in all cases: log2 fold change, soluble protein after heating vs DMSO (PISA); higher = thermal stabilisation; K562 cells, 10 uM, 30 min; active = over 0.2 and 3.5 SD of the protein, either way, in both replicates (recomputed)
[1] = compound: COC1=CC=C(C=C1)CN2C=CC3=C2C=C(C=C3)C(=O)NO
Procedure, shortened: (§1)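 K562 cells at 2×10^6 cells/mL were given 10 μM compound for 30 min. Aliquots then went through 3 min of heating across 48°C-58°C, were pooled, and were extracted in PBS with 0.5% NP-40 at 4°C, and the supernatant after 21,000xg for 90 min was quantified by TMTpro 16plex LC-MS/MS with channel sums equalised. Thermal stability relative to control samples, from duplicates, is given as log2 fold change.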

filanesib = compound: CON(C)C(=O)N1N=C(c2cc(F)ccc2F)S[C@@]1(CCCN)c1ccccc1 [filanesib]
Procedure, shortened: as §1

zotarolimus = compound: CO[C@H]1C[C@@H]2CC[C@@H](C)[C@@](O)(O2)C(=O)C(=O)N2CCCC[C@H]2C(=O)O[C@H]([C@H](C)C[C@@H]2CC[C@H](n3cnnn3)[C@H](OC)C2)CC(=O)[C@H](C)/C=C(\C)[C@@H](O)[C@@H](OC)C(=O)[C@H](C)C[C@H](C)/C=C/C=C/C=C/1C [zotarolimus]
Procedure, shortened: as §1

idasanutlin = compound: COc1cc(C(=O)O)ccc1NC(=O)[C@@H]1N[C@@H](CC(C)(C)C)[C@](C#N)(c2ccc(Cl)cc2F)[C@H]1c1cccc(Cl)c1F [idasanutlin]
Procedure, shortened: as §1

alisertib = compound: COc1cc(Nc2ncc3c(n2)-c2ccc(Cl)cc2C(c2c(F)cccc2OC)=NC3)ccc1C(=O)O [alisertib]
Procedure, shortened: as §1

[2] = compound: COc1cc2nc(-c3cc(F)ccc3O)nc(N[C@@H]3CNC[C@H]3C(C)(C)O)c2cc1OC
Procedure, shortened: as §1

gefitinib = compound: COc1cc2ncnc(Nc3ccc(F)c(Cl)c3)c2cc1OCCCN1CCOCC1 [gefitinib]
Procedure, shortened: as §1

[3] = compound: COc1cccc2cc(-c3nc([C@H]4CC[C@H](C(=O)O)CC4)n4ncnc(N)c34)[nH]c12
Procedure, shortened: as §1

lapatinib = compound: CS(=O)(=O)CCNCc1ccc(-c2ccc3ncnc(Nc4ccc(OCc5cccc(F)c5)c(Cl)c4)c3c2)o1 [lapatinib]
Procedure, shortened: as §1

pictilisib = compound: CS(=O)(=O)N1CCN(Cc2cc3nc(-c4cccc5[nH]ncc45)nc(N4CCOCC4)c3s2)CC1 [pictilisib]
Procedure, shortened: as §1

[4] = compound: CS(=O)(=O)c1ccc(-c2cnc(N)c(C(=O)Nc3ccccc3)n2)cc1
Procedure, shortened: as §1

crizotinib = compound: C[C@@H](Oc1cc(-c2cnn(C3CCNCC3)c2)cnc1N)c1c(Cl)ccc(F)c1Cl [crizotinib]
Procedure, shortened: as §1

[5] = compound: C[C@@H]1COCCN1C2=NC(=NC(=C2)C3(CC3)S(=O)(=O)C)C4=C5C=CNC5=CC=C4
Procedure, shortened: as §1

[6] = compound: C[C@H](C1=CC=C(C=C1)C(=O)NC2=C3C=CNC3=NC=C2)N
Procedure, shortened: as §1

duvelisib = compound: C[C@H](Nc1ncnc2nc[nH]c12)c1cc2cccc(Cl)c2c(=O)n1-c1ccccc1 [duvelisib]
Procedure, shortened: as §1

gandotinib = compound: Cc1cc(Nc2cc(CN3CCOCC3)c3nc(C)c(Cc4ccc(Cl)cc4F)n3n2)n[nH]1 [gandotinib]
Procedure, shortened: as §1

tozasertib = compound: Cc1cc(Nc2cc(N3CCN(C)CC3)nc(Sc3ccc(NC(=O)C4CC4)cc3)n2)n[nH]1 [tozasertib]
Procedure, shortened: as §1

[7] = compound: Cc1cc(SCc2sc(-c3ccc(C(F)(F)F)cc3)nc2C)ccc1OCC(=O)O
Procedure, shortened: as §1

doramapimod = compound: Cc1ccc(-n2nc(C(C)(C)C)cc2NC(=O)Nc2ccc(OCCN3CCOCC3)c3ccccc23)cc1 [doramapimod]
Procedure, shortened: as §1

ispinesib = compound: Cc1ccc(C(=O)N(CCCN)[C@@H](c2nc3cc(Cl)ccc3c(=O)n2Cc2ccccc2)C(C)C)cc1 [ispinesib]
Procedure, shortened: as §1

Target	log2 fold change [1]	log2 fold change (filanesib)	log2 fold change (zotarolimus)	log2 fold change (idasanutlin)	log2 fold change (alisertib)	log2 fold change [2]	log2 fold change (gefitinib)	log2 fold change [3]	log2 fold change (lapatinib)	log2 fold change (pictilisib)	log2 fold change [4]	log2 fold change (crizotinib)	log2 fold change [5]	log2 fold change [6]	log2 fold change (duvelisib)	log2 fold change (gandotinib)	log2 fold change (tozasertib)	log2 fold change [7]	log2 fold change (doramapimod)	log2 fold change (ispinesib)
HNRNPAB isoform 3 (UniProt Q99729)	inactive: -0.088	inactive: 0.175	inactive: -0.045	inactive: 0.092	inactive: -0.048	inactive: 0.025	inactive: -0.012	inactive: -0.023	inactive: 0.009	inactive: -0.068	inactive: -0.064	inactive: 0.018	inactive: -0.213	inactive: 0.227	inactive: -0.1	inactive: 0.17	inactive: 0.012	inactive: -0.038	inactive: 0.033	inactive: -0.069
HM13 isoform 2 (UniProt Q8TCT9)	inactive: -0.078	inactive: -0.083	inactive: -0.019	inactive: -0.06	inactive: -0.005	inactive: -0.041	inactive: 0.008	inactive: 0.086	inactive: 0.01	inactive: -0.005	inactive: -0.014	inactive: 0.038	inactive: 0.003	inactive: -0.041	inactive: -0.004	inactive: -0.031	inactive: -0.004	inactive: -0.037	inactive: 0.002	inactive: -0.021
HNRNPA2B1 (UniProt P22626)	inactive: -0.122	inactive: 0.427	inactive: -0.114	inactive: 0.361	inactive: -0.131	inactive: -0.007	inactive: -0.069	inactive: -0.071	inactive: 0.086	inactive: -0.026	inactive: -0.146	inactive: 0.035	inactive: -0.444	inactive: 0.224	inactive: -0.122	inactive: 0.181	inactive: 0.04	inactive: 0.028	inactive: 0.041	inactive: -0.113
HIKESHI (UniProt Q53FT3)	inactive: -0.051	inactive: -0.063	inactive: 0.026	inactive: -0.05	inactive: -0.076	inactive: 0.067	inactive: 0.011	inactive: 0.009	inactive: -0.021	inactive: -0.004	inactive: -0.007	inactive: 0.067	inactive: 0.182	inactive: -0.023		inactive: -0.033		inactive: -0.021	inactive: -0.013	inactive: 0.192
HNRNPUL1 (UniProt Q9BUJ2)	inactive: 0.033	inactive: 0.047	inactive: -0.043	inactive: 0.03	inactive: 0.01	inactive: 0.023	inactive: -0.02	inactive: 0.009	inactive: 0.031	inactive: 0.014	inactive: 0.007	inactive: -0.023	inactive: -0.016	inactive: 0.147		inactive: 0.049		inactive: 0.085	inactive: -0.025	inactive: -0.019
HNRNPC isoform 2 (UniProt P07910)	inactive: 0.009	inactive: 0.39	inactive: -0.024	inactive: 0.796	inactive: -0.052	inactive: -0.041	inactive: 0.002	inactive: -0.065	inactive: -0.026	inactive: 0.065	inactive: -0.176	inactive: -0.061	inactive: -0.239	inactive: 0.532		inactive: 0.197		inactive: 0.125	inactive: 0.088	inactive: -0.35
HMGCR isoform 3 (UniProt P04035)	inactive: -0.097	inactive: -0.027	inactive: 0	inactive: 0.188	inactive: -0.146	inactive: 0.166	inactive: 0.01	inactive: -0.045	inactive: -0.066	inactive: -0.13	inactive: -0.259	inactive: 0.071	inactive: -0.234	inactive: -0.004		inactive: 0.092		inactive: -0.065	inactive: 0.025	inactive: 0.111
HK2 (UniProt P52789)	inactive: 0.035	inactive: 0.031	inactive: 0.03	inactive: -0.064	inactive: -0.124	inactive: 0.097	inactive: -0.07	inactive: 0.005	inactive: -0.206	active: -0.353	inactive: -0.156	inactive: 0.082	inactive: 0.03	inactive: -0.014		active: -0.297		inactive: 0.013	inactive: -0.026	inactive: 0.161
HHEX (UniProt Q03014)	inactive: 0.178	inactive: -0.007	inactive: -0.102	inactive: 0.035	inactive: 0.002	inactive: -0.04	inactive: -0.016	inactive: 0.053	inactive: -0.004	inactive: -0.012	inactive: -0.014	inactive: -0.027	inactive: -0.104	inactive: 0.49		inactive: -0.042		inactive: 0.021	inactive: 0.05	inactive: -0.128
HSD17B12 (UniProt Q53GQ0)	inactive: 0.069	inactive: -0.013	inactive: 0.03	inactive: -0.169	inactive: 0.003	inactive: 0.135	inactive: 0.103	inactive: 0.045	active: 0.369	inactive: 0.102	inactive: 0.046	inactive: 0.191	inactive: 0.012	inactive: -0.061		active: 0.371		inactive: 0.055	inactive: -0.009	inactive: 0.243
HMOX2 (UniProt P30519)	active: 0.444	inactive: 0.085	inactive: 0.027	inactive: 0.148	inactive: -0.03	inactive: 0.036	inactive: 0.006	inactive: -0.041	inactive: -0.045	inactive: -0.04	inactive: 0.07	inactive: -0.03	inactive: 0.022	inactive: 0.008		inactive: 0.017		inactive: 0.041	inactive: 0.062	inactive: -0.028
HIST2H3A (UniProt Q71DI3)	inactive: 0.037	inactive: 0.268	inactive: -0.167	inactive: 0.508	inactive: 0.001	inactive: -0.106	inactive: 0.061	inactive: -0.367	inactive: 0.065	inactive: -0.021	inactive: -0.106	inactive: -0.327	inactive: -0.204	inactive: 0.399		inactive: -0.014		inactive: -0.031	inactive: 0.098	inactive: -0.081
HLTF (UniProt Q14527)	inactive: -0.027	inactive: -0.004	inactive: -0.042	inactive: -0.049	inactive: 0.008	inactive: 0.081	active: 0.334	inactive: -0.126	inactive: 0.013	inactive: 0.007	inactive: -0.034	inactive: 0.045	inactive: -0.143	inactive: 0.006		inactive: -0.078		inactive: 0.063	inactive: -0.003	inactive: 0.006
IBA57 (UniProt Q5T440)	inactive: -0.009	inactive: -0.039	inactive: -0.012	inactive: -0.001	inactive: -0.031	inactive: 0.024	inactive: 0.03	inactive: 0.076	inactive: -0.016	inactive: -0.007	inactive: 0.027	inactive: 0.09	inactive: 0.058	inactive: 0.043	inactive: -0.004	inactive: 0.011	inactive: -0.045	inactive: 0.043	inactive: -0.017	inactive: 0.056
HMGN4 (UniProt O00479)	inactive: -0.222	inactive: -0.313	inactive: 0.056	inactive: 0.074	inactive: -0.395	inactive: -0.139	inactive: -0.197	inactive: -0.415	inactive: 0.292	inactive: -0.57	inactive: -0.457	inactive: 0.028	inactive: -0.357	inactive: -0.433	inactive: -0.129	inactive: 0.028	inactive: 0	inactive: -0.182	inactive: 0.164	inactive: 0.253
HNRNPLL (UniProt Q8WVV9)	inactive: 0.136	inactive: 0.073	inactive: -0.003	inactive: -0.049	inactive: 0.109	inactive: -0.089	inactive: 0.073	inactive: 0.04	inactive: 0.126	inactive: 0.028	inactive: -0.021	inactive: 0.068	inactive: 0.13	inactive: 0.004	inactive: 0.021	inactive: 0.077	inactive: 0	inactive: 0.224	inactive: -0.068	inactive: 0.033
HIST2H2BF isoform 2 (UniProt Q5QNW6)	inactive: 0.062	inactive: 0.248	inactive: -0.163	inactive: 0.437	inactive: 0.081	inactive: -0.112	inactive: 0.053	inactive: -0.314	inactive: 0.047	inactive: -0.137	inactive: -0.049	inactive: -0.095	inactive: -0.279	inactive: 0.38		inactive: -0.018		inactive: -0.064	inactive: 0.253	inactive: -0.178

Look-ups from the list:
log2 fold change [6] with IBA57 (UniProt Q5T440) reads inactive: 0.043
log2 fold change (doramapimod) with HMOX2 (UniProt P30519) reads inactive: 0.062
